Source: the supplement of paper PMC5949888
± gives the standard deviation of the averaged measurements. Most values lie at the floor of the assay. Slopes are relative: functional sequences can read slightly below zero.

System: Saccharomyces cerevisiae PS128 hsf1 delta, HSF1(1-493) fusion
Experiment: growth estimate (transactivation domain function in HSF1 fusion, heat-shock survival) (a.u. (slope of normalised read count over time)); higher = stronger growth at 37°C, i.e. more transactivation activity
Conditions: library: random library

Substance | growth estimate
SVAFAYGRRVL | < -0.25
SVAGNMGTKTSRFRL | < -0.25
SVC | < -0.25
SVCQAFSFDTTAQATVYVVP | < -0.25
SVDFKKGACSSMGVQVYLFS | < -0.25
SVDVLN | < -0.25
SVEAVSCFFHEARCESWGRD | -0.0858
SVEG | < -0.25
SVFPA | < -0.25
SVFVRCKYIQGGRTLLRQYS | < -0.25
SVGAGDTGKSEFRIVGMFAR | < -0.25
SVGIRDSAYWVY | < -0.25
SVGKIGGTDVGRIIELRS | -0.194
SVGRRKFLNLARFSRYSQTQ | < -0.25
SVGSCRL | < -0.25
SVHISGVHAALVSDASGD | < -0.25
SVHRGASRRLTL | < -0.25
SVHRGSRKYL | < -0.25
SVHRTG | < -0.25
SVHRYGSGTTAVV | < -0.25
SVHSST | < -0.25
SVIDKSLTWW | < -0.25
SVIKMQSQGVSWHIKRISVV | < -0.25
SVILGLRRQ | < -0.25
SVILRPEHSIVLDVVHGLLH | < -0.25
SVKCQ | < -0.25

Substance | growth estimate
SVKLHESFRGQGDMRPPG | < -0.25
SVLATFGMGRPPPLFSYTRD | < -0.25
SVLLDQVGIRPWRAGPGNPS | < -0.25
SVLNLQQLVYYWGKMSGEVG | < -0.25
SVLPGGFAY | < -0.25
SVMF | < -0.25
SVNLGQAVIQADPPSGALRR | < -0.25
SVNPLVSGGEDMR | < -0.25
SVPCRWAY | < -0.25
SVPLWPAHT | < -0.25
SVPSTPRNRDMCSPTRDQ | < -0.25
SVQFDSFPTQETLPARGSMG | < -0.25
SVQGLEGAMTLDTAAS | 0.182
SVQGQKRNLPAWFTATPVAA | < -0.25
SVQPKPFPLRSPNICRFISA | < -0.25
SVRCYL | < -0.25
SVRETRWHLLPQEMILRGPD | < -0.25
SVRGG | < -0.25
SVRKLR | < -0.25
SVRRGRRLLNVFRLSLRAHG | < -0.25
SVSA | < -0.25
SVSALGADTASRNIRTVILT | < -0.25
SVSERKMTTCYARAFARWIR | < -0.25
SVSGEATFSSDVIAGRKIRM | < -0.25
SVSISLTGGAEVRVLTPRRA | < -0.25
SVSIVL | < -0.25

Substance | growth estimate
SVSTDPGFML | < -0.25
SVSTGIFC | < -0.25
SVTGWFGFHRCSCVRGPDDR | < -0.25
SVTLN | < -0.25
SVTMVTTNR | < -0.25
SVTRKLPYLGSKLEGAFERG | < -0.25
SVTSYAGGRGGPRVLAEDGR | < -0.25
SVVGGPSRYPNYARL | < -0.25
SVVLTRQLRKYAVDDQTVIT | < -0.25
SVVTPHCESPEPCGTVAPIS | < -0.25
SVWGGSREGRVSRRLSVMSR | -0.145
SVWMYTASYGGWTYCNINKW | < -0.25
SWAIHAGTSFAYVTIRANSD | < -0.25
SWALCFL | < -0.25
SWCNGAGQANLGLNGTM | < -0.25
SWFAIAWSPAKYKGADARAR | < -0.25
SWGETITEAVGMGRGHGDRC | < -0.25
SWGLLL | < -0.25
SWGREGYLRRAVL | < -0.25
SWHLSNAKPGGRLRGQMIAR | < -0.25
SWIA | < -0.25
SWLGLIELLIVGSQFLR | < -0.25
SWLN | -0.23
SWPKAHWSFGPACWSGWQAV | < -0.25
SWPLESRALRVLVIPAGTCS | < -0.25
SWSE | 0.251 ± 0.71

Substance | growth estimate
SWSFRSVPGRVSA | 0.0803
SWSGGGRIKCQARAPPALIS | < -0.25
SWSSGMTRERPR | < -0.25
SWSSHFAPSVVVRAVLASNS | < -0.25
SWSYVVLRTLGKK | < -0.25
SWTHCFESLGGVGLHFAINE | -0.204
SWVDKLTSSSQAGS | < -0.25
SWVDPMSG | < -0.25
SWYRL | < -0.25
SYAQGCGDRRRFHNTRSLGG | < -0.25
SYAYVPAYDSRHAPPEWS | < -0.25
SYFRLPCVWFRD | < -0.25
SYGEHHLERAVVDEISGPHA | < -0.25
SYKDMLLGFKENAHSMLHCK | < -0.25
SYKGGFFQRIPNKESRLSAT | < -0.25
SYKYTSQAQSSSVRRNPHEW | < -0.25
SYLSKGCSG | < -0.25
SYMLAGSLGSEGVGRQWLAS | < -0.25
SYPG | < -0.25
SYQNSRP | < -0.25
SYRRGVGA | < -0.25
SYSAGRH | -0.245
SYSLVVLQSCHASRIRGAPS | < -0.25
SYSTSAYWVQKTQHGSSGVM | < -0.25
SYTTQGTAAQRQAFDADDVG | < -0.25
SYTTTLDPSVLIERQQPRFY | < -0.25

A run of entries taken from the entries so far, for reference:
Substance | growth estimate
SYSLVVLQSCHASRIRGAPS | < -0.25
SYSTSAYWVQKTQHGSSGVM | < -0.25
SYTTQGTAAQRQAFDADDVG | < -0.25

(listing goes on)

Substance | growth estimate
SYVGVDDETGG | < -0.25
SYYARLDSAYTFCFRR | < -0.25
SYYLGGFFSVWMAILERVSA | < -0.25
TAADIGRGKSGPGPALHPQL | < -0.25
TAASS | < -0.25
TACLR | < -0.25
TACVHARDTTIVRLYCAY | < -0.25
TADE | < -0.25
TADGGITRQLSPPCNGSLAL | < -0.25
TADMISQRIRRIAEV | < -0.25
TAEDLTASKRSVAILSTTSV | < -0.25
TAEEPARFTTRFHGLLSICP | < -0.25
TAETRIQDGPGRICMPWSLD | < -0.25
TAEVSTWHGKECDFLEHSVR | -0.0702
TAFDTWGS | < -0.25
TAG | < -0.25
TAGGESSAWPLLDVIGFCVV | < -0.25
TAGN | < -0.25
TAGTIARSRADFTWHSAFRR | < -0.25
TAI | < -0.25
TAKRVNKSSLCTLDIRTPKA | < -0.25
TALCVVSY | -0.245
TALM | -0.241
TALNTAYDCTRLRKVVNVGE | < -0.25
TALWDWRSVGYTAGKQNPTV | < -0.25
TANAEPLVRESLSIVPSNVA | < -0.25

Rewritten field by field: part of the list above.
TADMISQRIRRIAEV
  growth estimate: < -0.25
TAEDLTASKRSVAILSTTSV
  growth estimate: < -0.25

Single values from above:
Value of SWGETITEAVGMGRGHGDRC under growth estimate: < -0.25
Value of SYTTQGTAAQRQAFDADDVG under growth estimate: < -0.25
Value of SVLATFGMGRPPPLFSYTRD under growth estimate: < -0.25
Value of TADGGITRQLSPPCNGSLAL under growth estimate: < -0.25
Value of SVSERKMTTCYARAFARWIR under growth estimate: < -0.25
Value of SVKLHESFRGQGDMRPPG under growth estimate: < -0.25

Going on with the list.

Substance | growth estimate
TANAMHGPILL | < -0.25
TAPRR | < -0.25
TAQGHLCSIAADTNSVSDHR | < -0.25
TAQQCYLEARPARRARKVEI | < -0.25
TAQRSPATG | < -0.25
TAQVLGTISCVCDRGPYFAH | < -0.25
TARYRHVA | < -0.25
TASMGRVSTTSEVLRGLAMV | < -0.25
TASSALGVFGVKANLLSSSR | < -0.25
TATAICPSL | < -0.25
TATRLSSSVWVLSMCGGSDP | < -0.25
TATRVTFGEC | < -0.25
TATSEHLYLLTVLRQECSMY | < -0.25
TATVSHGSPGEKFVRRFSCT | < -0.25
TAVL | < -0.25
TAVRHNMDCSWM | < -0.25
TCADPVG | < -0.25
TCARNTCLETDGHTSVVGFL | < -0.25
TCCGKLTD | -0.246
TCCKVTERVLRSVSIGAVPD | < -0.25
TCE | < -0.25
TCFLHLRIFRSRCSLEDFRP | < -0.25
TCFTYCGTMTM | -0.246
TCHHLDY | < -0.25
TCHLGHSNNFFQAS | < -0.25
TCIENEMESATET | < -0.25

Substance | growth estimate
TCLSFS | < -0.25
TCLSPVRTNPGVCGTQLSDD | < -0.25
TCLTVLVITGLPPIPRFLRF | < -0.25
TCNVRGMPQR | < -0.25
TCPLVRRRKIRV | < -0.25
TCQPCAFYQIQTYRETGLAA | < -0.25
TCRLKFGATISVAIEH | < -0.25
TCSRRKWVKVSRYRCHVGRV | < -0.25
TCTKWSEVASVDACQGHIGH | < -0.25
TCTYYGIGSSVLRANPGGPN | < -0.25
TCWG | < -0.25
TDD | < -0.25
TDDLGDCKGILG | -0.243
TDHTFNRI | < -0.25
TDHTIVRDHQLSGRSGQG | < -0.25
TDLCRRRIHLPGDSDAAPCS | < -0.25
TDLPS | < -0.25
TDLYKGGGMLSDFGKPIRGH | < -0.25
TDMSDITRGSILSNTYGNIA | < -0.25
TDNV | < -0.25
TDQHRPVLQGRGAEGATPAT | < -0.25
TDSEAW | < -0.25
TDSSP | < -0.25
TDTESSVGELVKPRGGLGYN | < -0.25
TDTVLLCAKESRFFTR | -0.193
TDVMLSVCTL | < -0.25

Substance | growth estimate
TDVRKCRRSTLIAVALAQGA | < -0.25
TDWVMASHSVNCSMEVYCSC | < -0.25
TDYCLSIPGSPSTEARTISP | < -0.25
TDYDSEYQGSRNAMGQLYRT | < -0.25
TDYEFVVAHQGCNRPFRNTH | < -0.25
TDYLRSRERGFQRLERSLRL | < -0.25
TEAAPPHVVNVAAFKISGGF | < -0.25
TEADRIWSAWQGEKSGAGAS | < -0.25
TEASA | < -0.25
TECQWQSRLTILRWTATLIV | < -0.25
TEDFKSAVAIGKRTTSPLYG | < -0.25
TEEMGFIGYI | < -0.25
TEFISMPRVPHRF | -0.0864
TEHDCDI | < -0.25
TEHL | < -0.25
TELSCTRLLGLSRAANTRRL | < -0.25
TEQASGSGHRYWYFSRDDRL | < -0.25
TEQSVMV | < -0.25
TERPLHDYRVKVTCFPSTRH | < -0.25
